Here are results for 1 substance from article PMC5014334.

For this test, the target named is T1, synthetic peptide vimentin (aa 45–65).
T1 sequence (peptide): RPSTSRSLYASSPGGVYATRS
Briefly: far-Western, overlay or dot blot; dot blot with synthetic peptide vimentin-(45–65) and purified GST-p17; GST and IgG as negative controls; who was dotted is not told; both purified.

These are yes or no findings as the source states them, for the method shown. A result given as binding can be weak or reduced; the word gives no strength.

As to “GST-p17 fusion protein (avian reovirus (ARV), strain S1133)”, the binding entry is recorded as “binds”.
